# Measured values from the supplement of paper PMC12823440, “Inhibitors supercharge kinase turnover through native proteolytic circuits” (Nature, 2025).
# By UniProt entry, the sequences of proteins in these tests, tags left out. Where a name states a change or a piece, a line headed by the entry shows the natural chain unless it says otherwise.
# UniProt P36888, whole entry: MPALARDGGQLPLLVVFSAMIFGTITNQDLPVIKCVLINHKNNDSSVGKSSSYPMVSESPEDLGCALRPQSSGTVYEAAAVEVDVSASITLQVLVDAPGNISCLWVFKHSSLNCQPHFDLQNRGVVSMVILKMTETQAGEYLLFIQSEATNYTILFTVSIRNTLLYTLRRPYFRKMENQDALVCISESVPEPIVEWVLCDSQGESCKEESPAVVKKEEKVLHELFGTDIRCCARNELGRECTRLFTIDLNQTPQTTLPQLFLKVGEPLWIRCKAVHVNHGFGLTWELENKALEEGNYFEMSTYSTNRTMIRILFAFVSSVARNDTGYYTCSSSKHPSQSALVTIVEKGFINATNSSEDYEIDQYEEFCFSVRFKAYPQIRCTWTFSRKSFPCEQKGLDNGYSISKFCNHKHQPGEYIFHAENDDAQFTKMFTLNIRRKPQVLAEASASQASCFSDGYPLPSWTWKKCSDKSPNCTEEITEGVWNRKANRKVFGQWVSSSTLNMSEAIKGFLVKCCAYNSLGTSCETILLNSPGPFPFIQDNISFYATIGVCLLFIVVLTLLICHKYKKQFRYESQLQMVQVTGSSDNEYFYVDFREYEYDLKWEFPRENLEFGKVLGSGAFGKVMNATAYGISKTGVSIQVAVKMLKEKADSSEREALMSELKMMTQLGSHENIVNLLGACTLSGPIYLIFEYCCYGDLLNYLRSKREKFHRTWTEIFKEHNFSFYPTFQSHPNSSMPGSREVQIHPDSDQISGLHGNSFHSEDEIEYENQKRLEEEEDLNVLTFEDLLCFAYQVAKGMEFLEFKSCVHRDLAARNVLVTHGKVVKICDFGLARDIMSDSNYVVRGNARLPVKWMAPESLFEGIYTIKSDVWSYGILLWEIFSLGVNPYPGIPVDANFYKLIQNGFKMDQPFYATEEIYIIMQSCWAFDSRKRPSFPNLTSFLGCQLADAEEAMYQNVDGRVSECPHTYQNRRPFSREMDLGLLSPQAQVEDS
# UniProt P06241, whole entry, looked up: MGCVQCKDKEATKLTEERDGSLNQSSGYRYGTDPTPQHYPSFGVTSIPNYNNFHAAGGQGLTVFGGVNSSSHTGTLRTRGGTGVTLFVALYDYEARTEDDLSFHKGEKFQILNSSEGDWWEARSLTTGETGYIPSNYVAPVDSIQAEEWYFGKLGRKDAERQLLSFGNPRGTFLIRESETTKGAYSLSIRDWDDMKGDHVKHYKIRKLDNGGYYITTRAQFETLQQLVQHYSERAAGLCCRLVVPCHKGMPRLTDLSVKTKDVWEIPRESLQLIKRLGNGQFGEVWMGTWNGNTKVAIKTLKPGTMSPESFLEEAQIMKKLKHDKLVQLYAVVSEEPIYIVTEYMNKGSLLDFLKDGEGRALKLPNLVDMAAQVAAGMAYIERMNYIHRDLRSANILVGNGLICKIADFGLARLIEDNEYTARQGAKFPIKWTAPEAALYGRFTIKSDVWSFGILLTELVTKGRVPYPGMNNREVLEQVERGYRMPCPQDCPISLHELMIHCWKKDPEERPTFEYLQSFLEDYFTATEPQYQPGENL
# UniProt P49840: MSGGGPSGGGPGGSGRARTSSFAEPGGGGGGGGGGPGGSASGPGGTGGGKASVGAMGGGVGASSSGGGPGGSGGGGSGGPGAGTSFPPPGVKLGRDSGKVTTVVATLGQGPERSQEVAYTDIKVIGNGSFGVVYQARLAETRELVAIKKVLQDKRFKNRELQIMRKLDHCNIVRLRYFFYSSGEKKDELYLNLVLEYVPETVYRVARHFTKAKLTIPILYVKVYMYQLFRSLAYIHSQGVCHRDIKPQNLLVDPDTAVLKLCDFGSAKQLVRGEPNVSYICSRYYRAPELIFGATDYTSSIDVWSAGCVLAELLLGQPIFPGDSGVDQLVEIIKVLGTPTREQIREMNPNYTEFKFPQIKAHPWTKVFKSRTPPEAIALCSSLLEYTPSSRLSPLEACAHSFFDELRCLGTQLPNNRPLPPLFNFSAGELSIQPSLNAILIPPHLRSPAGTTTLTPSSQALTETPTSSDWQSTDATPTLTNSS
# UniProt P14616: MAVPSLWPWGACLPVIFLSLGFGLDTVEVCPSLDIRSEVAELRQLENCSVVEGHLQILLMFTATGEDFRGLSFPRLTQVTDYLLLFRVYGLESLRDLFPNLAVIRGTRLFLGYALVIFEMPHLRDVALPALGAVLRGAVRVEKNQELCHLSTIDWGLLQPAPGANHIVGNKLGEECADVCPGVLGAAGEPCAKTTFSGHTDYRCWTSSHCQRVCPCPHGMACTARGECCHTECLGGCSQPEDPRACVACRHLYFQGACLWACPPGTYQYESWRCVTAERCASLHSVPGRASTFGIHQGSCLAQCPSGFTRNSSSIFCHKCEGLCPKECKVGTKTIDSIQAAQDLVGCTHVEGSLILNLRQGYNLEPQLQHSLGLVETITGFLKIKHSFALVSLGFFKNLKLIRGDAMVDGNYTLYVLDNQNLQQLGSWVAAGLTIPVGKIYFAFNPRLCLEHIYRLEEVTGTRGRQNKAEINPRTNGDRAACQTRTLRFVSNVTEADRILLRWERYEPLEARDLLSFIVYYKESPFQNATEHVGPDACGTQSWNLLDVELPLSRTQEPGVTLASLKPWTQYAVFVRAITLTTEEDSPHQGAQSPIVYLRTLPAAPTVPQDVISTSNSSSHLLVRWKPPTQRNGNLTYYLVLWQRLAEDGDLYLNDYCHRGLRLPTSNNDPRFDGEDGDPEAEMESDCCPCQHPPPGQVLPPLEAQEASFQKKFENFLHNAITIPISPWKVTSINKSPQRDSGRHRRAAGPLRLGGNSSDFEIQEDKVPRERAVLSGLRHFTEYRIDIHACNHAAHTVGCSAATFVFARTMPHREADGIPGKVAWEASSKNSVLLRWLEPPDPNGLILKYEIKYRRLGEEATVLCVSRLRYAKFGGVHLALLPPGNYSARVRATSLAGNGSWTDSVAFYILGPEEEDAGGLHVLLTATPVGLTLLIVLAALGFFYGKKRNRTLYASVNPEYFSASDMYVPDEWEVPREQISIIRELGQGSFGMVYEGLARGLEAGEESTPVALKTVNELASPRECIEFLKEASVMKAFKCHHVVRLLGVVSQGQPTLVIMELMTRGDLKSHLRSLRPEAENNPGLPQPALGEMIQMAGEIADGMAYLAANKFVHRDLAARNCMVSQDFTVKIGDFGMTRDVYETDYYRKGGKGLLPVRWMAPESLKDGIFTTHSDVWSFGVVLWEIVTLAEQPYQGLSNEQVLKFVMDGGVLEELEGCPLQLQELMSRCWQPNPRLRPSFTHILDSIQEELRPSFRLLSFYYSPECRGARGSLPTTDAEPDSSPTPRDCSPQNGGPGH
# UniProt P23458: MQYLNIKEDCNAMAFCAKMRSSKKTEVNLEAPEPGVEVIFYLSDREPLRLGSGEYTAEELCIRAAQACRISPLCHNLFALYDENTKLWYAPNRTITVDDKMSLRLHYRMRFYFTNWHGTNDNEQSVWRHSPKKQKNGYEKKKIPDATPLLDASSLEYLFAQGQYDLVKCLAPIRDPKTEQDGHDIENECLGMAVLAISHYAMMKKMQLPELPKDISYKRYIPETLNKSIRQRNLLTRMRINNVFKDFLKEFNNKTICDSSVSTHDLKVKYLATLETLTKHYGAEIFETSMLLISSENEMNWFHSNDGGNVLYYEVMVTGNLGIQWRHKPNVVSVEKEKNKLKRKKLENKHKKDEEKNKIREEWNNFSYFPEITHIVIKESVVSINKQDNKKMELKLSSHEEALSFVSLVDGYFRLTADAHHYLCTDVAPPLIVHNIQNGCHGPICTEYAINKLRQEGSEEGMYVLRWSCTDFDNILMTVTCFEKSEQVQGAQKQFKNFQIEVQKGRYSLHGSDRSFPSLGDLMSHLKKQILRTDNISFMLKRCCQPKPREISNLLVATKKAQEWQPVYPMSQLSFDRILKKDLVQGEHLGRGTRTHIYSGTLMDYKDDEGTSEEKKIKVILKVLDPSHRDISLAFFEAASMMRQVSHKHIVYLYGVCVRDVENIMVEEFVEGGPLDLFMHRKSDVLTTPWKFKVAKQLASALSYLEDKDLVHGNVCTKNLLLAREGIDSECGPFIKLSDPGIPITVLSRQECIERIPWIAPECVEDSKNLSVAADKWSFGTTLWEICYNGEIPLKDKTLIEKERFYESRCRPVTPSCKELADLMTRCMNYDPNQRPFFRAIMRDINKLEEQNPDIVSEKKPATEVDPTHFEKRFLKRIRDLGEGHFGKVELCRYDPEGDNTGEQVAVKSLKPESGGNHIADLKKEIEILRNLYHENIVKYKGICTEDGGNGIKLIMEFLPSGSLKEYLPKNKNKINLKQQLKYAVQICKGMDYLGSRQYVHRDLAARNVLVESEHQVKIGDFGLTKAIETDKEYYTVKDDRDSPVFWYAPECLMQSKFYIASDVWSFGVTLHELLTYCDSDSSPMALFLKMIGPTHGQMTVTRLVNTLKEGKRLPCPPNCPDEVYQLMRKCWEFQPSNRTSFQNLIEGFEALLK
# UniProt P06239: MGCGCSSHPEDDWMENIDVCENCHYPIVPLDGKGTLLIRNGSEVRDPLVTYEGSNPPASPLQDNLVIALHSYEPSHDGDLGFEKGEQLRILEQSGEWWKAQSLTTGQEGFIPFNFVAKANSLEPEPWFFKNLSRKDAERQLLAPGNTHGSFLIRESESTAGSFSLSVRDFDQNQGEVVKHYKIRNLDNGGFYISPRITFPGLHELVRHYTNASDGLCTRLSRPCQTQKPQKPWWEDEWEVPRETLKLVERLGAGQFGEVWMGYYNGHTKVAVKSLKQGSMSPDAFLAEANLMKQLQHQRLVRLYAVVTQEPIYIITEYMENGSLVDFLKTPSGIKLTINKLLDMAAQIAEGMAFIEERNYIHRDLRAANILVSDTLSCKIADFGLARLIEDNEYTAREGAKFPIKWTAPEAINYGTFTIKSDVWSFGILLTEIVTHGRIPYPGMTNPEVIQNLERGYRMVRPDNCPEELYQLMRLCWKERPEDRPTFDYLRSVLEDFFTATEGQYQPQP
# UniProt P53667: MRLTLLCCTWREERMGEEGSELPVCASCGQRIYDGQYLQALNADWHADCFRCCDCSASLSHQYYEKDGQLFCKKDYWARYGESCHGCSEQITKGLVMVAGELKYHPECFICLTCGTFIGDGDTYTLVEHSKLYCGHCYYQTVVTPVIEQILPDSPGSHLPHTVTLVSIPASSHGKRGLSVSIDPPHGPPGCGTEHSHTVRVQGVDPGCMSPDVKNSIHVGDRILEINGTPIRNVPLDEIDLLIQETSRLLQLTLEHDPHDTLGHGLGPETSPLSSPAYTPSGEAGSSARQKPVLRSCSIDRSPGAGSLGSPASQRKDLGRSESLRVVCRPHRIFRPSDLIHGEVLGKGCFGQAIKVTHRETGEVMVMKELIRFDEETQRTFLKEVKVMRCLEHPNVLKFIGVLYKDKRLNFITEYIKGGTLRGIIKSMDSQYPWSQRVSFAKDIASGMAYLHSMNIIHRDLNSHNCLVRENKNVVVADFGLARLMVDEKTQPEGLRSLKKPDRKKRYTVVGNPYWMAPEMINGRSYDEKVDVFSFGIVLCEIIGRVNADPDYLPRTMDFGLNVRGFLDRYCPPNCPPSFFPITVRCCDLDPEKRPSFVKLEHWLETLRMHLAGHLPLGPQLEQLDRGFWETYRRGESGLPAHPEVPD
# UniProt P53671: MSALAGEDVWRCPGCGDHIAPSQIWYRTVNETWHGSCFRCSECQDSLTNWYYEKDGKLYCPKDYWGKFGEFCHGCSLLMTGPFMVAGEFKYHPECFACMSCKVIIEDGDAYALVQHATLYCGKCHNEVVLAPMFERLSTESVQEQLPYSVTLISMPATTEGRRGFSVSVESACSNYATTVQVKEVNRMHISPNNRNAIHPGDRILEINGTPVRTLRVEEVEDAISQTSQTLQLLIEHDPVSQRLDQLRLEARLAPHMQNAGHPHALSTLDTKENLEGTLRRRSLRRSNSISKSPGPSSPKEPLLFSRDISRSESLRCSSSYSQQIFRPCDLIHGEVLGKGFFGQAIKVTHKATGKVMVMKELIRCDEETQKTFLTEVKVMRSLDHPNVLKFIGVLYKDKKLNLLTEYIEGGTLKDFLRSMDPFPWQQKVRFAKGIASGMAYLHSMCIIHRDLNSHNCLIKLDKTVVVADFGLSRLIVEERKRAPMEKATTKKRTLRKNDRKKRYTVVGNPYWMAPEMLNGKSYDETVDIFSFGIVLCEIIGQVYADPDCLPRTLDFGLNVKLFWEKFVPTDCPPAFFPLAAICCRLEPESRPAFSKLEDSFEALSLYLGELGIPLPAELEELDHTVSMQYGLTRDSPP
# Structures can show the parent of a compound that is named as a salt. This is one part of the list. Hit calls seldom repeat between salt and free forms of one compound.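 Kinases were expressed as nanoluciferase fusions in K562 cells and luminescence was read every 4 h between 2 and 18 h as percent of control, DMSO set to 100% and a positive control to 0%. A time point counts as decreased when the signal drops significantly (2 sigma). The hit call is the authors' own, does not follow from the count of time points alone, and its rule is not shown.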
# Key:
# Assay in all cases: number of time points (of 5) at which kinase-Nluc abundance scored as decreased, DMSO-normalised (count); higher = more persistent destabilization
# Settings in all cases: K562; 2-18 h
# FLT3 = FLT3 (UniProt P36888)
# FYN = FYN (UniProt P06241)
# GSK3A = GSK3A (UniProt P49840)
# HER2 = HER2 (UniProt P04626)
# INSRR = INSRR (UniProt P14616)
# IRAK3 = IRAK3 (UniProt Q9Y616)
# JAK1 = JAK1 (UniProt P23458)
# LCK = LCK (UniProt P06239)
# LIMK1 = LIMK1 (UniProt P53667)
# LIMK2 = LIMK2 (UniProt P53671)
Structure (SMILES),number of time points (FLT3),number of time points (FYN),number of time points (GSK3A),number of time points (HER2),number of time points (INSRR),number of time points (IRAK3),number of time points (JAK1),number of time points (LCK),number of time points (LIMK1),number of time points (LIMK2)
CO[C@]1(C(=O)N[C@@H](C)c2ccc(-n3cc(F)cn3)nc2)CC[C@H](c2nc(C)cc(Nc3cc(C)[nH]n3)n2)CC1 [Pralsetinib] (10 µM),0,0,0,0,0,0,0,0,0,0
Nc1nc(Nc2ccc3c(c2)CC[C@@H](N2CCCC2)CC3)nn1-c1cc2c(nn1)-c1ccccc1CCC2 [Bemcentinib] (2.5 µM),0,0,0,0,0,0,0,0,0,0
Nc1[nH]nc2nnc(-c3c(-c4ccccc4)nn4ccccc34)cc12 (10 µM),0,0,0,0,0,0,0,0,0,0
C[C@H](Nc1cc2c(-c3ccc4c(c3)OCO4)noc2cn1)c1ccccc1 (10 µM),0,0,0,0,0,0,0,0,0,0
COc1cccc(-c2cc(=O)c3ccccc3o2)c1N (10 µM),0,0,0,0,0,0,0,0,0,0
O=C(NCc1ccn[nH]1)c1cc([C@@H]2CCNC[C@H]2COc2ccc3c(c2)OCO3)ccc1F [GRK2-IN-1 (hydrochloride)] (10 µM),0,0,0,0,0,0,0,0,0,0
C=CC(=O)Nc1cc(Nc2nccc(-c3cn(C)c4ccccc34)n2)c(OCC(F)(F)F)nc1N(C)CCNC [AST5902  (trimesylate)] (2.5 µM),0,3,0,3,0,0,0,0,1,1
C=CC(=O)N1CCC(c2ccc(C(N)=O)c(-c3ccc(Oc4ccccc4)cc3)n2)CC1 [Orelabrutinib] (2.5 µM),0,0,0,0,0,0,0,0,0,0
COc1cc(N2CCC(O)CC2)ccc1Nc1nc(Nc2ccccc2S(=O)(=O)C(C)C)c2[nH]cnc2n1 (10 µM),0,0,0,0,0,0,0,0,0,0
CC(C)c1cc2c(c(O)c1O)[C@@]13CCCC(C)(C)[C@@H]1C[C@@H]2OC3=O [Carnosol] (2.5 µM),0,0,0,0,0,0,0,0,0,0
CC(=O)O[C@@H]1[C@@H](OC(C)=O)[C@@H](O)[C@H](Oc2c(-c3ccc(O)cc3)oc3cc(O)cc(O)c3c2=O)O[C@H]1C (10 µM),0,0,0,0,0,0,0,0,0,0
CC1(C)C=Cc2c(ccc(C(=O)/C=C/c3ccc(O)cc3)c2O)O1 [4-Hydroxylonchocarpin] (10 µM),0,0,0,0,0,0,0,0,0,0
CCOc1cc(=O)[nH]cc1-c1ccc(CC(=O)Nc2cc(C(C)(C)C(F)(F)F)on2)c(F)c1 (10 µM),0,0,0,0,0,0,0,0,0,0
O=C1Cc2ccccc2N1 [Oxindole] (10 µM),0,0,0,0,0,0,0,0,0,0
CCC[C@H](C)Oc1nc(N)c2[nH]c(=O)n(CCCCCN3CCCCC3)c2n1 (10 µM),0,0,0,0,0,0,0,0,0,0
N#CC(=C(/N)Sc1ccccc1N)/C(C#N)=C(\N)Sc1ccccc1N (10 µM),0,0,0,1,4,0,0,0,0,0
Fc1ccc(-c2nc3n(c2-c2ccncc2)CCS3)cc1 (10 µM),0,0,0,0,0,0,0,0,0,0
Cc1nn(CC(F)(F)F)cc1Nc1ncc(Br)c(NCc2ccc(S(N)(=O)=O)cc2)n1 (10 µM),0,0,0,0,0,0,0,0,0,0
CCOc1cc(N2CCC(O)CC2)ccc1Nc1ncc2c(n1)N(C1CCCC1)CCC(=O)N2C (2.5 µM),0,0,0,0,0,0,0,0,0,0
CNC(=O)CN1CCC(Oc2cc3c(Nc4cccc(Cl)c4F)ncnc3cc2OC)CC1 [Sapitinib] (10 µM),0,0,0,0,0,0,0,0,0,0
N#C/C(=C/c1ccc(O)c(O)c1)C(=O)N1CCc2ccccc21 [Tyrphostin AG 528] (10 µM),0,0,0,0,0,0,0,0,0,0
O=C(C#Cc1ccccc1)c1cccc([N+](=O)[O-])c1 (10 µM),0,0,0,0,0,0,0,0,0,0
CCCCC(=O)OCC(=O)[C@]1(O)Cc2c(O)c3c(c(O)c2[C@@H](O[C@H]2C[C@H](NC(=O)C(F)(F)F)[C@H](O)[C@H](C)O2)C1)C(=O)c1c(OC)cccc1C3=O [Valrubicin] (10 µM),0,0,0,0,1,0,0,0,0,0

# Single records, from the list above. Order of values: number of time points (FLT3)	number of time points (FYN)	number of time points (GSK3A)	number of time points (HER2)	number of time points (INSRR)	number of time points (IRAK3)	number of time points (JAK1)	number of time points (LCK)	number of time points (LIMK1)	number of time points (LIMK2)
# CNC(=O)CN1CCC(Oc2cc3c(Nc4cccc(Cl)c4F)ncnc3cc2OC)CC1 [Sapitinib] (10 µM) is entered as 0	0	0	0	0	0	0	0	0	0
# N#C/C(=C/c1ccc(O)c(O)c1)C(=O)N1CCc2ccccc21 [Tyrphostin AG 528] (10 µM) is entered as 0	0	0	0	0	0	0	0	0	0
# COc1cccc(-c2cc(=O)c3ccccc3o2)c1N (10 µM) is entered as 0	0	0	0	0	0	0	0	0	0

# Additional records

Structure (SMILES),number of time points (FLT3),number of time points (FYN),number of time points (GSK3A),number of time points (HER2),number of time points (INSRR),number of time points (IRAK3),number of time points (JAK1),number of time points (LCK),number of time points (LIMK1),number of time points (LIMK2)
N=C(NC(=N)N1CCCC1)Nc1ccc(OC(F)(F)F)cc1 (10 µM),0,0,0,0,0,0,0,0,0,0
CNc1cc2c(Nc3cccc(Br)c3)ncnc2cn1 (10 µM),0,0,0,0,0,0,0,0,0,0
CCn1c(N)c(C(=O)NC)c(=O)c2ccc(C#CC(C)(O)COC)nc21 (stereo not drawn) (10 µM),0,0,0,0,0,0,0,0,0,0
COc1cc(N2CCC(N3CCN(C)CC3)CC2)ccc1Nc1ncnc(Nc2ccccc2S(=O)(=O)C(C)C)n1 (10 µM),0,0,0,0,0,0,0,0,0,0
COc1c(Nc2ncc(Cl)c(N[C@H]3[C@@H](C(N)=O)[C@@H]4C=C[C@H]3C4)n2)ccc2c1CC[C@@H](N1CCOCC1)CC2 (10 µM),0,0,0,0,0,0,0,0,0,0
O=C(COc1ccc(Cl)cc1)NC1CCC(NC(=O)COc2ccc(Cl)cc2)CC1 (stereo not drawn) [ISRIB (trans-isomer)] (10 µM),0,0,0,0,0,0,0,0,0,0
COc1ccc(Cl)cc1N(CC(=O)Nc1ccc2c(c1)OCO2)S(=O)(=O)c1ccccc1 (2.5 µM),0,0,0,0,0,0,0,0,0,0
Nc1ccc(-c2nc3ccc(-c4nc5ccc(N)cc5[nH]4)cc3[nH]2)cc1 (10 µM),0,0,0,0,0,0,0,0,0,0
CN1CCN(c2ccc(-n3cc(-c4ccncc4OCC4CCNCC4)cn3)cc2)CC1 [MELK-8a (hydrochloride)] (10 µM),0,3,0,2,2,3,0,0,4,2
Cn1cnc2c(F)c(Nc3ccc(Br)cc3F)c(C(=O)NOCCO)cc21 [Binimetinib] (10 µM),0,4,0,0,0,0,0,0,0,0
Cc1n[nH]c2ncc(C(=O)N3CCC[C@H]3c3ccc(Cl)cc3)cc12 (10 µM),0,0,0,0,0,0,0,0,0,0
O=[N+]([O-])c1ccc(-c2nc(-c3ccc(F)cc3)c(-c3ccncc3)[nH]2)cc1 (10 µM),0,0,0,0,0,0,0,0,0,0
CC(C)=CCC[C@](C)(O[C@@H]1O[C@H](CO[C@@H]2O[C@H](CO)[C@@H](O)[C@H](O)[C@H]2O)[C@@H](O)[C@H](O)[C@H]1O)[C@H]1CC[C@]2(C)[C@@H]1[C@H](O)C[C@@H]1[C@@]3(C)CC[C@H](O[C@@H]4O[C@H](CO)[C@@H](O)[C@H](O)[C@H]4O[C@@H]4O[C@H](CO)[C@@H](O)[C@H](O)[C@H]4O)C(C)(C)[C@@H]3CC[C@]12C [Ginsenoside Rb1] (10 µM),0,0,0,0,0,0,0,0,0,0
COc1cc(Nc2ccnc3ccc(Br)cc23)cc(OC)c1OC (2.5 µM),0,0,0,0,0,0,1,0,0,0
CC(C)n1c(CO)nc2c(F)cc(-c3nc(Nc4ccc(CN5CCNCC5)cn4)ncc3F)cc21 (10 µM),4,3,0,3,4,3,4,0,0,3
Cn1cc(-c2nc(N[C@@H]3CCCC[C@@H]3N)c(F)c3c2C(=O)NC3)cn1 [TAK-659 (hydrochloride)] (2 µM),0,0,0,0,0,0,0,0,0,0
CC(C)(CCCCCC(O)CCCCCC(C)(C)C(=O)O)C(=O)O [Bempedoic acid] (10 µM),0,0,0,0,0,0,0,0,0,0
COc1ccc2nc3ccc(OC)cc3c(SCCCN)c2c1 (10 µM),0,3,0,0,0,0,0,0,3,0
CCNC(=O)Nc1ccc(-c2nc3c(c(N4CCOC[C@@H]4C)n2)CCN(C2COC2)C3)cc1 (2.5 µM),0,0,0,0,0,0,0,0,0,0
CCCCNc1ncc(C(=O)NCc2ccc(-n3ccnc3)cc2)c(NC2CCC(O)CC2)n1 (stereo not drawn) (10 µM),–,0,0,2,0,0,4,0,0,0
CCCS(=O)(=O)N[C@H]1C[C@@H](N(C)c2ncnc3[nH]ccc23)C1 [Abrocitinib] (10 µM),0,0,0,0,0,0,–,0,0,0
O=CN1CCN(c2ccc(C=C3C(=O)Nc4ccccc43)cc2)CC1 (10 µM),0,0,0,0,0,0,0,0,0,0
CN1C(=O)[C@@H](NC(=O)c2cc(Cc3ccccc3)on2)COc2ccccc21 (10 µM),0,0,0,0,0,0,0,0,0,0
